Experimental data as given in PMC4703059.

T1: Lst7-protein A (genomically tagged) (S. cerevisiae) (UniProt P53237)
T1 sequence: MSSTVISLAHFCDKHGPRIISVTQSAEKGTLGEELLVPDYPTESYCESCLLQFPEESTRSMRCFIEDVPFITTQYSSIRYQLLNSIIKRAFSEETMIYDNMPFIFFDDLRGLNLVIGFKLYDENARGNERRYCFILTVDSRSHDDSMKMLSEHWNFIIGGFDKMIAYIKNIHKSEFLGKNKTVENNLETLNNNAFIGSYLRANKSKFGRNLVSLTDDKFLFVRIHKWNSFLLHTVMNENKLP

T2: Lst4-protein A (genomically tagged) (S. cerevisiae) (UniProt P34239)
T2 sequence: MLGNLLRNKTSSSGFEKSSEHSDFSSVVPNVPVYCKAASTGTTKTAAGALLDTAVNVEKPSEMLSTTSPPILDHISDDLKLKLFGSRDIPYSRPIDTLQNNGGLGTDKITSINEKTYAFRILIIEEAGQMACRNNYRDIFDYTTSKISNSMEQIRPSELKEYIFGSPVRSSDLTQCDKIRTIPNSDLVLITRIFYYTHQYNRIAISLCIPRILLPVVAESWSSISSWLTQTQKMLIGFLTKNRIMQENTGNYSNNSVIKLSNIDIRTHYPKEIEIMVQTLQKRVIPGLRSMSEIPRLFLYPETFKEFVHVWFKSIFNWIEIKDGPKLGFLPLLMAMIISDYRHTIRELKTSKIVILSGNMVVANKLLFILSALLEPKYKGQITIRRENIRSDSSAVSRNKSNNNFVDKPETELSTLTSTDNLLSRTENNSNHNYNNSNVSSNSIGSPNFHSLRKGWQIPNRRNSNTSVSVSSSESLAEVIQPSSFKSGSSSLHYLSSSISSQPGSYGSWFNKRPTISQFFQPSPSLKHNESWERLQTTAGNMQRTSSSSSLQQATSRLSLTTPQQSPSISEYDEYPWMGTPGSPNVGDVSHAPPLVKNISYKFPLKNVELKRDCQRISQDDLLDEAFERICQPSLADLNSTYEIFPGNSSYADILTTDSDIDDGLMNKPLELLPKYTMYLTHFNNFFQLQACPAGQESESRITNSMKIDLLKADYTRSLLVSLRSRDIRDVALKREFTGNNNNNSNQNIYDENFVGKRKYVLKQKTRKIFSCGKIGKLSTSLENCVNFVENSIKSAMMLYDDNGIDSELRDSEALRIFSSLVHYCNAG

B1: Lst4 (endogenous, yeast lysate) (protein, UniProt P34239 1-828)
chain: T2 sequence
B2: Lst7 (endogenous, yeast lysate) (protein, UniProt P53237 1-242)
chain: T1 sequence

Columns and labels:
[1] = target: T1, Lst7-protein A (genomically tagged) (S. cerevisiae); experiment: affinity purification with mass spectrometry; C-terminal protein A genomically tagged strains; immunoprecipitation with IgG-coated magnetic beads in buffers of varying stringency (75-500 mM NaCl; TC250); bands identified by MALDI fingerprinting or LC-MS/MS
[2] = target: T2, Lst4-protein A (genomically tagged) (S. cerevisiae); experiment: as above

| binding [1] | binding [2] | Binder |
| --- | --- | --- |
| binds | – | B1 |
| – | binds | B2 |

No constants are given. Whether binding was seen depends on the method and setting. In cells and extracts the contact can be indirect. A yes stands for co-enrichment or nearness to the bait. Other partners may have been found. Tags and fused reporters may be left off the sequences shown.
